{"source": "PubChem BioAssay AID686938 (Drosophila RNAi Screening Center, 2013)", "assay": "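Knock-downs reducing store-operated calcium influx in Drosophila cells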 (primary screen)", "cell system": "Drosophila S2R+ cells", "knock-down reagent": "long dsRNA against Drosophila genes, about 0.25 µg dsRNA per well, roughly 10,000 cells", "time to read-out": "5 days of knock-down before the calcium assay", "challenge": "thapsigargin (SERCA pump blocker) to empty calcium stores; entry signal taken 4 min after adding it", "detection": "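Duplicate raw fluo-4 intensities per well from a plate reader, at rest and four minutes after thapsigargin emptied calcium stores; entry-to-rest ratio filled for only some wells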", "scale": "calcium entry signal: higher = stronger calcium signal after store depletion; resting calcium signal: higher = higher resting calcium signal", "units": "calcium entry signal in fluorescence units; resting calcium signal in fluorescence units", "call rule": "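Hit if the duplicate-averaged plate z-score for entry over resting signal is under −3; wells with weak total dye signal (Fmax z < −2) or more than 5 off-targets removed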", "meaning of the calls": "active = strongly reduced calcium entry; inactive = no strong reduction", "note": "The deposit covers about 23,000 reagents; this is an unselected part of those that have a named target and a result. Over the whole deposit, 75 (0.33%) were called active. 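Raw plate signals without normalisation; calls rest on plate z-scores that were not deposited; ratio present for only 364 wells.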 Reagents against one gene are numbered here. A plus sign joins genes that one reagent is predicted to hit. No sequences are given here. The record does not give: the dose of the treatment."}
{"Gene": "Dora (Dorado)", "reagent": 1, "calcium entry signal, replicate 1": 5.64e7, "calcium entry signal, replicate 2": 4.84e7, "resting calcium signal, replicate 1": 2.76e7, "resting calcium signal, replicate 2": 2.02e7, "Call": "inactive"}
{"Gene": "Dora (Dorado)", "reagent": 2, "calcium entry signal, replicate 1": 5.88e7, "calcium entry signal, replicate 2": 2.76e7, "resting calcium signal, replicate 1": 2.69e7, "resting calcium signal, replicate 2": 1.28e7, "Call": "inactive"}
{"Gene": "Dora (Dorado)", "reagent": 3, "calcium entry signal, replicate 1": 5.71e7, "calcium entry signal, replicate 2": 4.13e7, "resting calcium signal, replicate 1": 2.76e7, "resting calcium signal, replicate 2": 1.91e7, "Call": "inactive"}
{"Gene": "Dora (Dorado)", "reagent": 4, "calcium entry signal, replicate 1": 5.87e7, "calcium entry signal, replicate 2": 4.79e7, "resting calcium signal, replicate 1": 3.02e7, "resting calcium signal, replicate 2": 2.35e7, "Call": "inactive"}
{"Gene": "CG10713", "reagent": 1, "calcium entry signal, replicate 1": 3.64e7, "calcium entry signal, replicate 2": 4.20e7, "resting calcium signal, replicate 1": 2.03e7, "resting calcium signal, replicate 2": 1.99e7, "Call": "inactive"}
{"Gene": "CG14545", "reagent": 1, "calcium entry signal, replicate 1": 3.83e7, "calcium entry signal, replicate 2": 7.13e7, "resting calcium signal, replicate 1": 1.85e7, "resting calcium signal, replicate 2": 2.95e7, "Call": "inactive"}
{"Gene": "Spag1 (Spag1 axonemal dynein assembly factor)", "reagent": 1, "calcium entry signal, replicate 1": 2.82e7, "calcium entry signal, replicate 2": 5.05e7, "resting calcium signal, replicate 1": 1.47e7, "resting calcium signal, replicate 2": 2.18e7, "Call": "inactive"}
{"Gene": "CG2059", "reagent": 1, "calcium entry signal, replicate 1": 3.01e7, "calcium entry signal, replicate 2": 4.17e7, "resting calcium signal, replicate 1": 1.52e7, "resting calcium signal, replicate 2": 1.95e7, "Call": "inactive"}
{"Gene": "CG32437", "reagent": 1, "calcium entry signal, replicate 1": 2.63e7, "calcium entry signal, replicate 2": 4.04e7, "resting calcium signal, replicate 1": 1.30e7, "resting calcium signal, replicate 2": 1.70e7, "Call": "inactive"}
{"Gene": "CG32437", "reagent": 2, "calcium entry signal, replicate 1": 2.89e7, "calcium entry signal, replicate 2": 6.28e7, "resting calcium signal, replicate 1": 1.46e7, "resting calcium signal, replicate 2": 2.79e7, "Call": "inactive"}
{"Gene": "CG32483", "reagent": 1, "calcium entry signal, replicate 1": 5.11e7, "calcium entry signal, replicate 2": 4.59e7, "resting calcium signal, replicate 1": 2.61e7, "resting calcium signal, replicate 2": 2.00e7, "Call": "inactive"}
{"Gene": "Pcif1 (Phosphorylated CTD-interacting factor 1)", "reagent": 1, "calcium entry signal, replicate 1": 3.32e7, "calcium entry signal, replicate 2": 3.86e7, "resting calcium signal, replicate 1": 1.60e7, "resting calcium signal, replicate 2": 2.72e7, "Call": "inactive"}
{"Gene": "beta4GalT7 (beta-4-galactosyltransferase 7)", "reagent": 1, "calcium entry signal, replicate 1": 4.63e7, "calcium entry signal, replicate 2": 6.65e7, "resting calcium signal, replicate 1": 2.09e7, "resting calcium signal, replicate 2": 2.78e7, "Call": "inactive"}
{"Gene": "MsR2 (Myosuppressin receptor 2)", "reagent": 1, "calcium entry signal, replicate 1": 3.03e7, "calcium entry signal, replicate 2": 4.02e7, "resting calcium signal, replicate 1": 1.51e7, "resting calcium signal, replicate 2": 1.87e7, "Call": "inactive"}
{"Gene": "MsR2 (Myosuppressin receptor 2)", "reagent": 2, "calcium entry signal, replicate 1": 3.00e7, "calcium entry signal, replicate 2": 4.55e7, "resting calcium signal, replicate 1": 1.45e7, "resting calcium signal, replicate 2": 1.87e7, "Call": "inactive"}
{"Gene": "MsR2 (Myosuppressin receptor 2)", "reagent": 3, "calcium entry signal, replicate 1": 4.20e7, "calcium entry signal, replicate 2": 3.67e7, "resting calcium signal, replicate 1": 2.09e7, "resting calcium signal, replicate 2": 1.63e7, "Call": "inactive"}
{"Gene": "CG1492", "reagent": 1, "calcium entry signal, replicate 1": 4.27e7, "calcium entry signal, replicate 2": 4.81e7, "resting calcium signal, replicate 1": 2.06e7, "resting calcium signal, replicate 2": 2.27e7, "Call": "inactive"}
{"Gene": "CG8997", "reagent": 1, "calcium entry signal, replicate 1": 4.97e7, "calcium entry signal, replicate 2": 3.38e7, "resting calcium signal, replicate 1": 2.08e7, "resting calcium signal, replicate 2": 1.57e7, "Call": "inactive"}
{"Gene": "CG4537", "reagent": 1, "calcium entry signal, replicate 1": 4.02e7, "calcium entry signal, replicate 2": 5.89e7, "resting calcium signal, replicate 1": 1.96e7, "resting calcium signal, replicate 2": 2.44e7, "Call": "inactive"}
{"Gene": "CG11037", "reagent": 1, "calcium entry signal, replicate 1": 3.22e7, "calcium entry signal, replicate 2": 6.08e7, "resting calcium signal, replicate 1": 1.66e7, "resting calcium signal, replicate 2": 2.35e7, "Call": "inactive"}
{"Gene": "Noc1 (Nucleolar complex protein 1)", "reagent": 1, "calcium entry signal, replicate 1": 3.07e7, "calcium entry signal, replicate 2": 2.85e7, "resting calcium signal, replicate 1": 2.08e7, "resting calcium signal, replicate 2": 1.37e7, "Call": "inactive"}
{"Gene": "CG9861", "reagent": 1, "calcium entry signal, replicate 1": 3.47e7, "resting calcium signal, replicate 1": 1.69e7, "Call": "inactive"}
{"Gene": "snoRNA:Me28S-C3227a + snoRNA:Me18S-A1061 + snoRNA:Me28S-C3227b + 7 more", "reagent": 1, "calcium entry signal, replicate 1": 4.63e7, "calcium entry signal, replicate 2": 4.18e7, "resting calcium signal, replicate 1": 4.01e7, "resting calcium signal, replicate 2": 1.91e7, "Call": "inactive"}
{"Gene": "CG5131", "reagent": 1, "calcium entry signal, replicate 1": 5.38e7, "calcium entry signal, replicate 2": 3.48e7, "resting calcium signal, replicate 1": 2.38e7, "resting calcium signal, replicate 2": 1.65e7, "Call": "inactive"}
{"Gene": "CG3246", "reagent": 1, "calcium entry signal, replicate 1": 2.75e7, "calcium entry signal, replicate 2": 3.15e7, "resting calcium signal, replicate 1": 1.48e7, "resting calcium signal, replicate 2": 1.45e7, "Call": "inactive"}
{"Gene": "Tssk (Testis-specific serine/threonine kinase)", "reagent": 1, "calcium entry signal, replicate 1": 3.96e7, "calcium entry signal, replicate 2": 4.42e7, "resting calcium signal, replicate 1": 4.50e7, "resting calcium signal, replicate 2": 2.12e7, "Call": "inactive"}
{"Gene": "CG7714", "reagent": 1, "calcium entry signal, replicate 1": 3.26e7, "calcium entry signal, replicate 2": 3.46e7, "resting calcium signal, replicate 1": 5.87e7, "resting calcium signal, replicate 2": 1.60e7, "Call": "inactive"}

An excerpt from the list above:
{"Gene": "Noc1 (Nucleolar complex protein 1)", "reagent": 1, "calcium entry signal, replicate 1": 3.07e7, "calcium entry signal, replicate 2": 2.85e7, "resting calcium signal, replicate 1": 2.08e7, "resting calcium signal, replicate 2": 1.37e7, "Call": "inactive"}
{"Gene": "CG9861", "reagent": 1, "calcium entry signal, replicate 1": 3.47e7, "resting calcium signal, replicate 1": 1.69e7, "Call": "inactive"}
{"Gene": "snoRNA:Me28S-C3227a + snoRNA:Me18S-A1061 + snoRNA:Me28S-C3227b + 7 more", "reagent": 1, "calcium entry signal, replicate 1": 4.63e7, "calcium entry signal, replicate 2": 4.18e7, "resting calcium signal, replicate 1": 4.01e7, "resting calcium signal, replicate 2": 1.91e7, "Call": "inactive"}
{"Gene": "CG5131", "reagent": 1, "calcium entry signal, replicate 1": 5.38e7, "calcium entry signal, replicate 2": 3.48e7, "resting calcium signal, replicate 1": 2.38e7, "resting calcium signal, replicate 2": 1.65e7, "Call": "inactive"}
